# At least one structure is not confirmed: it was looked up by name or label, or the drawing left a doubt.
# System: carbonyl reductase from Lactococcus lactis
# Assay: CRLL activity assay (decrease of NADPH absorption); substrate table of the isolated carbonyl reductase
# Assay type: biochemical
# Settings: Substrate (20 mM)
# Text: The construct crll-pkk223-3 as well as crll-his-pkk223-3 were both transformed separately into the E. coli host strain HB101 for expression.
smiles,measurement,setting,value
CC(=O)C(=O)O [pyruvate],Activity (U/mL),,1.8 U/mL
same,spec. Act. (U/mg),"activity per protein (0.37, 5.5 or 6.6 mg/mL)",4.865 U/mg

# Source: patent publication US20060240535A1, “Carbonyl reductase from lactococcus lactis” (GEORGIA TECH RESEARCH CORPORATION, priority 2004, published 2006)
